Experimental data reported in the supplement of paper PMC12067093, “Discovery and optimisation of a covalent ligand for TRIM25 and its application to targeted protein ubiquitination” (Chemical Science, 2025).
The list shows a part of the results.

These targets were tested with CC1Cc2ccccc2N1C(=O)C1CCCN(C1)C(=O)CCl (mixture of isomers) [TRIM25 ligand 11 (diastereomer mixture)] (assay: probe-labelled cysteine peptide fold change vs DMSO (competition) (log2 fold change); higher = less target engagement (more negative = stronger competition)). Conditions: 10 µM; THP-1; incubation time: 4 h.
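Also: competitive chemoproteomic profiling in live THP-1 cells with an iodoacetamide desthiobiotin (IA-DTB) probe, comparing probe-labelled peptide intensities in compound-treated cells against DMSO-treated controls.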

| Target | probe-labelled cysteine peptide fold change |
| --- | --- |
| SND1_Q7KZF4_826+837_DIQNTQCLLNVEHLSAGCPHVTLQFADSKGDVGLGLVK (UniProt Q7KZF4) | -0.353 |
| SMS_P52788_237_TCGDVLDNLK (UniProt P52788) | -0.0498 |
| SMURF2_Q9HAU4_706_LFTIHQIDACTNNLPK (UniProt Q9HAU4) | -0.109 |
| SMARCAD1_Q9H4L7_772_NTEMCNVMMQLR (UniProt Q9H4L7) | 0.0876 |
| SMARCC1_Q92922_108_CFMDFK (UniProt Q92922) | -0.0752 |
| SMARCA2_P51531_968_CDMSALQK (UniProt P51531) | 0.0315 |
| SMYD5_Q6GMV2_70_ACDHCLR (UniProt Q6GMV2) | -0.0677 |
| SNRNP200_O75643_133_DILCGAADEVLAVLK (UniProt O75643) | -0.0841 |
| SNRNP200_O75643_302_TASDDRECENQLVLLLGFNTFDFIK (UniProt O75643) | -0.0898 |
| SMG5_Q9UPR3_109_STLECAYR (UniProt Q9UPR3) | 0.24 |
| SMAD4_Q13485_391_GVQLECK (UniProt Q13485) | 0.0468 |
| SMG8_Q8ND04_72_FSLVNTVCDR (UniProt Q8ND04) | 0.0872 |
| SNAPC1_Q16533_11_GTPPGLQTDCEALLSR (UniProt Q16533) | -0.19 |
| SMARCA5_O60264_1001_CNTLITLIER (UniProt O60264) | -0.0569 |
| SNRNP200_O75643_769_TEAEQCK (UniProt O75643) | 0.0258 |
| SLC27A3_Q5K4L6_579_DVFRPGDVFFNTGDLLVCDDQGFLR (UniProt Q5K4L6) | -0.1 |
| SMARCA2_P51531_399_QEVVACMR (UniProt P51531) | 0.112 |
| SMC1A_Q14683_933_HNLLQACK (UniProt Q14683) | -0.197 |

| Target | probe-labelled cysteine peptide fold change |
| --- | --- |
| SMARCA2_P51531_399_QLRQEVVACMR (UniProt P51531) | -0.116 |
| SLC4A7_Q9Y6M7_120_VQFILGTEDDDEEHIPHDLFTEMDELCYR (UniProt Q9Y6M7) | 0.222 |
| SMPD4_Q9NXE4_164_ASIQECILPDSPLYHNK (UniProt Q9NXE4) | 0.0166 |
| SMPD4_Q9NXE4_766_FAGQMAALCSR (UniProt Q9NXE4) | -0.231 |
| SLC27A2_O14975_414_DEPVRDENGYCVR (UniProt O14975) | 0.0377 |
| SMARCC1_Q92922_845_ELTDTCK (UniProt Q92922) | -0.0769 |
| SMG8_Q8ND04_755_QASTVEYLPGMLHSNCPK (UniProt Q8ND04) | -0.0995 |
| SNRNP40_Q96DI7_72_CSSLQAPIMLLSGHEGEVYCCK (UniProt Q96DI7) | 0.165 |
| SLC31A1_O15431_189_AVVVDITEHCH (UniProt O15431) | -0.00846 |
| SMC3_Q9UQE7_1134_CDPAPFYLFDEIDQALDAQHR (UniProt Q9UQE7) | 0.315 |
| SLC44A1_Q8WWI5_98_YVFFLDPCNLDLINRK (UniProt Q8WWI5) | 0.122 |
| SMARCB1_Q12824_350_NTGDADQWCPLLETLTDAEMEK (UniProt Q12824) | -0.0899 |
| SLC4A1AP_Q9BWU0_435_EAMIQCSLEACR (UniProt Q9BWU0) | 0.114 |
| SMARCC2_Q8TAQ2_91_AGGSLCHILAAAYK (UniProt Q8TAQ2) | 0.0152 |
| SMS_P52788_256_TCGDVLDNLKGDCYQVLIEDCIPVLKR (UniProt P52788) | -0.302 |
| SMCHD1_A6NHR9_1967_CNDSLR (UniProt A6NHR9) | -0.121 |
| SLC44A1_Q8WWI5_98_KYVFFLDPCNLDLINR (UniProt Q8WWI5) | -0.0959 |
| SMARCB1_Q12824_167_TFPLCFDDHDPAVIHENASQPEVLVPIRLDMEIDGQKLR (UniProt Q12824) | -0.0714 |

Same assay, conditions: 50 µM; THP-1; incubation time: 4 h

| Target | probe-labelled cysteine peptide fold change |
| --- | --- |
| SND1_Q7KZF4_826+837_DIQNTQCLLNVEHLSAGCPHVTLQFADSKGDVGLGLVK (UniProt Q7KZF4) | -0.434 |
| SMS_P52788_237_TCGDVLDNLK (UniProt P52788) | -0.0527 |
| SMURF2_Q9HAU4_706_LFTIHQIDACTNNLPK (UniProt Q9HAU4) | -0.298 |
| SMARCAD1_Q9H4L7_772_NTEMCNVMMQLR (UniProt Q9H4L7) | -0.132 |
| SMARCC1_Q92922_108_CFMDFK (UniProt Q92922) | -0.064 |
| SMARCA2_P51531_968_CDMSALQK (UniProt P51531) | 0.0598 |
| SMYD5_Q6GMV2_70_ACDHCLR (UniProt Q6GMV2) | 0.0331 |
| SNRNP200_O75643_133_DILCGAADEVLAVLK (UniProt O75643) | -0.018 |
| SNRNP200_O75643_302_TASDDRECENQLVLLLGFNTFDFIK (UniProt O75643) | 0.0958 |
| SMG5_Q9UPR3_109_STLECAYR (UniProt Q9UPR3) | 0.132 |
| SMAD4_Q13485_391_GVQLECK (UniProt Q13485) | 0.21 |
| SMG8_Q8ND04_72_FSLVNTVCDR (UniProt Q8ND04) | 0.0377 |
| SNAPC1_Q16533_11_GTPPGLQTDCEALLSR (UniProt Q16533) | 0.139 |
| SMARCA5_O60264_1001_CNTLITLIER (UniProt O60264) | 0.22 |
| SNRNP200_O75643_769_TEAEQCK (UniProt O75643) | -0.0433 |
| SLC27A3_Q5K4L6_579_DVFRPGDVFFNTGDLLVCDDQGFLR (UniProt Q5K4L6) | -0.123 |
| SMARCA2_P51531_399_QEVVACMR (UniProt P51531) | 0.2 |
| SMC1A_Q14683_933_HNLLQACK (UniProt Q14683) | -0.257 |

| Target | probe-labelled cysteine peptide fold change |
| --- | --- |
| SMARCA2_P51531_399_QLRQEVVACMR (UniProt P51531) | -0.0635 |
| SLC4A7_Q9Y6M7_120_VQFILGTEDDDEEHIPHDLFTEMDELCYR (UniProt Q9Y6M7) | -0.577 |
| SMPD4_Q9NXE4_164_ASIQECILPDSPLYHNK (UniProt Q9NXE4) | -0.046 |
| SMPD4_Q9NXE4_766_FAGQMAALCSR (UniProt Q9NXE4) | -0.0921 |
| SLC27A2_O14975_414_DEPVRDENGYCVR (UniProt O14975) | -0.0613 |
| SMARCC1_Q92922_845_ELTDTCK (UniProt Q92922) | -0.154 |
| SMG8_Q8ND04_755_QASTVEYLPGMLHSNCPK (UniProt Q8ND04) | -0.0245 |
| SNRNP40_Q96DI7_72_CSSLQAPIMLLSGHEGEVYCCK (UniProt Q96DI7) | 0.0428 |
| SLC31A1_O15431_189_AVVVDITEHCH (UniProt O15431) | 0.165 |
| SMC3_Q9UQE7_1134_CDPAPFYLFDEIDQALDAQHR (UniProt Q9UQE7) | 0.0388 |
| SLC44A1_Q8WWI5_98_YVFFLDPCNLDLINRK (UniProt Q8WWI5) | -0.0836 |
| SMARCB1_Q12824_350_NTGDADQWCPLLETLTDAEMEK (UniProt Q12824) | -0.155 |
| SLC4A1AP_Q9BWU0_435_EAMIQCSLEACR (UniProt Q9BWU0) | 0.0996 |
| SMARCC2_Q8TAQ2_91_AGGSLCHILAAAYK (UniProt Q8TAQ2) | -0.0673 |
| SMS_P52788_256_TCGDVLDNLKGDCYQVLIEDCIPVLKR (UniProt P52788) | -0.139 |
| SMCHD1_A6NHR9_1967_CNDSLR (UniProt A6NHR9) | -0.161 |
| SLC44A1_Q8WWI5_98_KYVFFLDPCNLDLINR (UniProt Q8WWI5) | 0.0613 |
| SMARCB1_Q12824_167_TFPLCFDDHDPAVIHENASQPEVLVPIRLDMEIDGQKLR (UniProt Q12824) | 0.0299 |
